# Data: article PMC12670160, “A drug-repurposing screen of FDA- and EMA-approved drugs identifies two NF-κB inhibitors active against eumycetoma” (Journal of Antimicrobial Chemotherapy, 2025)
# Where a name gives a salt, the structure may show the parent alone. About 130 (2.5%) of roughly 5,300 compounds showed an effect of 50% or more. The list shows a part of the results.
# System: M. mycetomatis strain mm55
# Details: primary screen, metabolic activity vs growth control; 96 h, 2 µM; inhibitor
row,SMILES,% viability [%]
1,c1cnc(SCc2cccnc2)nc1 [ONC0002754],103.8
2,"O=C(O)CCNc1cc(N2CCc3ccccc3CC2)nc(-c2ccccn2)n1 [ONC0001788, gskj1]",89.17
3,"COc1ccc(COc2ccc(Cc3cnc(N)nc3N)cc2OC)cc1 [ONC0004414, gw2580]",95.16
4,"Cc1cc([N+](=O)[O-])ccc1NS(=O)(=O)c1cc(Cl)ccc1Cl [ONC0001886, fh535]",115.4
5,"COc1ccc(C(=O)NCc2cccnc2)cc1C(=O)NCc1cccnc1 [ONC0002144, picotamide]",72.45
6,"Cc1c(Cl)cccc1S(=O)(=O)Nc1nc(CC(=O)N2CCN(C)CC2)cs1 [ONC0001229, bvt 2733]",120.1
7,"Cc1nc(NS(=O)(=O)c2ccc(N)cc2)oc1C [ONC0005495, sulfamoxole]",107.5
8,"C=C(Nc1ccc(OCC)cc1)Nc1ccc(OCC)cc1 [ONC0005342, phenacaine]",118.6
9,"OCC[N+]12CN3CN(CN(C3)C1)C2 [ONC0001499, y11]",85.89
10,"CCCCN1CCCC1CNC(=O)c1cc(C#N)c2ccccc2c1OC (stereo not shown) [ONC0001239, nafadotride]",68.92
11,"COC(=O)C1=C(C)NC(C)=C(C(=O)O[C@@H]2CCCN(Cc3ccccc3)C2)[C@@H]1c1cccc([N+](=O)[O-])c1 (racemic) [ONC0004618, benidipine hydrochloride]",66.69
12,"Cc1cc(O)c(-c2ccc([C@@H](C)CN)cc2)c2c1[nH]c(=O)c1sccc12 [ONC0001173, ots514]",81.93
13,"O=C(O)c1ccc2[nH]cc(CCCCN3CC=C(c4ccccc4)CC3)c2c1 [ONC0004451, carmoxirole]",126.8
14,"CC(=O)Nc1nc(C)c(-c2ccc(Cl)c(S(=O)(=O)NCCO)c2)s1 [ONC0004891, pik93]",111.7
15,"CN(Cc1ccccc1)C(=O)[C@H](Cc1ccc2ccccc2c1)NC(=O)[C@@H]1CCCN1C(=O)Nc1ccccc1[N+](=O)[O-] [ONC0003027, sdznkt343]",140.9
16,"O=c1c(O)c(-c2ccc(O)cc2O)oc2cc(O)cc(O)c12 [ONC0005252, morin hydrate aurantica]",114.3
17,"COc1ccc(C2CNC(=O)C2)cc1OC1CCCC1 (stereo not shown) [ONC0004062, rolipram]",112.2
18,"OC[C@H]1O[C@@H](Oc2cc(O)cc(/C=C/c3ccc(O)cc3)c2)[C@H](O)[C@@H](O)[C@@H]1O [ONC0004966, polydatinpiceid]",66.69
19,"COc1ccc2nc3c(c(N)c2c1)CCCC3 [ONC0003701, 7methoxytacrine]",109.8
20,"NC(=O)NCCCC(N)C(=O)O (stereo not shown) [ONC0003865, lcitrulline]",65.76

row,SMILES,% viability [%]
1,"CCOC(=O)Nc1ccc2c(c1)N(C(=O)CN(CC)CC)c1ccccc1CC2 [ONC0001397, cinpa1]",105.8
2,"Nc1c(S(=O)(=O)O)cc(Nc2cccc3ccccc23)c2c1C(=O)c1ccccc1C2=O [ONC0003059, psb06126]",88.48
3,"CC(SC(=O)c1cccs1)C(=O)NCC(=O)O (stereo not shown) [ONC0003330, stepronin]",68.94
4,"Cc1cn2nc([C@@H]3CCCCN3C(=O)c3cc(Cl)ccc3NS(C)(=O)=O)cc2nc1N1CC[C@H](N)C1 [ONC0000861, presatovir]",79.82
5,"COc1cc(C(=O)NCC2(N(C)C)CCCC2)cc(OC)c1OCc1ccccc1 [ONC0001731, org25543]",88.88
6,"COc1ccc(F)c(F)c1C(=O)c1cnc(NC2CCN(S(C)(=O)=O)CC2)nc1N [ONC0005102, r547]",97.1
7,"CN(C)N(C)C(=O)[C@@]1(Cc2ccccc2)CCCN(C(=O)[C@@H](Cc2c[nH]c3ccccc23)NC(=O)C(C)(C)N)C1 [ONC0000737, anamorelin]",94.91
8,"CCOC(=O)[C@H](CCc1ccccc1)N[C@H]1CS[C@H](c2cccs2)CN(CC(=O)O)C1=O [ONC0004925, temocapril hcl]",86.58
9,"Cl.c1ccc(C2CNCc3ccccc32)cc1 (stereo not shown) [ONC0002642, 4phenyl1234tetrahydroisoquinoline]",64.91
10,"c1ccc2c(c1)[I+]c1ccccc1-2 [ONC0002720, diphenyleneiodonium]",44.4
11,"NC(=O)c1ccc([N+](=O)[O-])cc1Cl [ONC0002900, aklomide]",107.5
12,"CC(C)[C@H](N)C(=O)OCC(CO)OCn1cnc2c(=O)nc(N)[nH]c21 (stereo partly shown) [ONC0002343, valganciclovir hydrochloride]",62.06
13,"CCN(CC)CC1CCN(c2ncc3ncnc(Nc4ccc(F)c(Cl)c4)c3n2)CC1 [ONC0003775, bibu1361]",116.3
14,"CCC(=O)O[C@]1(C(=O)CCl)[C@@H](C)C[C@H]2[C@@H]3CCC4=CC(=O)C=C[C@]4(C)[C@@]3(F)[C@@H](O)C[C@@]21C [ONC0002120, clobetasolpropionate]",104.9
15,"O=C1C[C@@H](c2ccc(O)cc2)Oc2cc(O)cc(O)c21 [ONC0005207, naringenin]",125.4
16,"COc1cc2nc(N3CCN(C(=O)C(C)OC)CC3)nc(N)c2cc1OC (stereo not shown) [ONC0005626, metazosin]",74.99
17,"COc1ccc(OC)c(C2C(C#N)=C(N)Oc3[nH]nc(-c4ccc5ccccc5c4)c32)c1 (stereo not shown) [ONC0001020, rbc8]",97.4
18,"c1ccc([C@H]2CN3CCSC3=N2)cc1 [ONC0002841, levamisole hydrochloride]",88.45
19,"O=S(=O)(O)c1cc(O)ccc1O [ONC0004826, ethamsylate]",62.39
20,"CC(O)COC[C@H]1O[C@@H]2O[C@H]3[C@H](O)[C@@H](O)[C@@H](O[C@H]4[C@H](O)[C@@H](O)[C@@H](O[C@H]5[C@H](O)[C@@H](O)[C@@H](O[C@H]6[C@H](O)[C@@H](O)[C@@H](O[C@H]7[C@H](O)[C@@H](O)[C@@H](O[C@H]8[C@H](O)[C@@H](O)[C@@H](O[C@H]1[C@H](O)[C@H]2O)O[C@@H]8COCC(C)O)O[C@@H]7COCC(C)O)O[C@@H]6COCC(C)O)O[C@@H]5COCC(C)O)O[C@@H]4COCC(C)O)O[C@@H]3COCC(C)O (stereo partly shown) [ONC0003826, hydroxypropylbetacyclodextrin]",73.6

# A draw from above in order of SMILES length, descending:
row,SMILES,% viability [%]
4,"Cc1cn2nc([C@@H]3CCCCN3C(=O)c3cc(Cl)ccc3NS(C)(=O)=O)cc2nc1N1CC[C@H](N)C1 [ONC0000861, presatovir]",79.82
3,"COc1ccc(COc2ccc(Cc3cnc(N)nc3N)cc2OC)cc1 [ONC0004414, gw2580]",95.16
19,"O=S(=O)(O)c1cc(O)ccc1O [ONC0004826, ethamsylate]",62.39
